Test results: the supplement of paper PMC7858590
± gives the standard deviation of the averaged measurements. The full ranking holds about 3,800 compounds; the median of “cell shape (eccentricity) Z-score vs DMSO control” is about 1.1, and the lowest 2% start at about -4.7. The list shows a part of the results.

tested on: human monocyte-derived macrophages (M0); assay: cell shape (eccentricity) Z-score vs DMSO control; higher = more elongated, M2-like morphology; conditions: 20 µM; 24 h; macrophage state: M0 (M-CSF)

Structure (SMILES)	cell shape (Z-score)
CC(C)c1ccc2c(c1)C(O)CC1C(C)(CO)CCCC21C (configuration not stated)	0.912
Nc1cccc(S(=O)(=O)N2CCCN(S(=O)(=O)c3ccc4c(c3)OCCO4)CC2)c1	2.48
S=P(N1CC1)(N1CC1)N1CC1	-2.23
CCCCCCCCCCCCCCCC(=O)C1C(=O)OC(CO)C1=O (configuration not stated)	3.45
CCCCOc1ccc(OCCCN2CCOCC2)cc1	-1.54
C=C1C[C@@H]2COC(=O)[C@]2(Cc2ccc3ccccc3c2)C1	0.832
CCCOc1ccc2nc(NC(=O)OC)[nH]c2c1	2.27
N=C(N)NC(=N)Nc1ccccc1	1.72
CN(C)CCCc1cc(C(=O)Nc2ccc(-c3ccncc3)cc2)ccc1O	1.65
C=CC[C@]12C[C@@H](OC)C(=O)C(OC)=C1O[C@@H](c1cc(OC)c3c(c1)OCO3)[C@@H]2C	1.59
O=C(/C=C/c1ccc(C(=O)N/N=C/c2ccc(O)c(O)c2O)cc1)NO	6.26
CC(C)=CCCC(C)(O)C(O)Cc1cc(C(=O)O)cc(CC=C(C)C)c1O (configuration not stated)	-0.439
COc1ccccc1OCCNCC(O)COc1cccc2[nH]c3ccccc3c12 (configuration not stated)	1.31
CC1OC(Oc2cc(O)c3c(=O)cc(-c4ccc(O)cc4)oc3c2C2OC(CO)C(O)C(O)C2O)C(O)C(O)C1O (configuration not stated)	0.904
c1ccc2c(c1)CN1CCCC1=N2	-3.56
COc1ccc(C(C)=O)c(O)c1	-2.74
COc1ccc(CCCOC(Cn2ccnc2)c2ccc(OC)cc2)cc1 (configuration not stated)	-2.89
COc1c(CCC(=O)O)c(O[C@@H]2O[C@H](CO)[C@@H](O)[C@H](O)[C@H]2O)cc2occc12	1.58 ± 2.6
CC1=C[C@@H](O)[C@H]2C(C)(C)CCC[C@]2(C)[C@@]1(O)CO	0.732
COC(=O)NC(C(=O)N[C@@H](Cc1ccccc1)C(O)CN(Cc1ccc(-c2ccccn2)cc1)NC(=O)C(NC(=O)OC)C(C)(C)C)C(C)(C)C (some centres not stated)	2.43
Cc1ccc(Sc2cncc3sc(C(N)=O)cc23)cc1	-1.04
CC(=O)O[C@@H]1[C@@H](O)[C@H](C)O[C@@H](O[C@H]2[C@@H]3C=CO[C@@H](O[C@@H]4O[C@H](CO)[C@@H](O)[C@H](O)[C@H]4O)[C@@H]3[C@@]3(CO)O[C@@H]23)[C@@H]1OC(=O)/C=C/c1ccc(O)cc1	-0.936 ± 2.8
C=CC1C(OC2OC(CO)C(O)C(O)C2O)OC=C(C(=O)OC)C1CC1CC(=O)CC(CC(=O)CCc2ccc(O)cc2)O1 (configuration not stated)	-0.527 ± 1.2

Structure (SMILES)	cell shape (Z-score)
C=C[C@](C)(O)CC[C@H]1C(C)=CC(=O)[C@H]2C(C)(C)CCC[C@]12C	-0.256
Cc1onc(-c2ccccc2)c1C(=O)NC1C(=O)N2[C@@H]1SC(C)(C)[C@@H]2C(=O)O (some centres not stated)	2.28
Cc1c(C(=O)Nc2ccc(N3C[C@@H](C)O[C@@H](C)C3)nc2)cccc1-c1ccc(OC(F)(F)F)cc1	7.49
CCN1CCC[C@H]1CNC(=O)c1cc(S(N)(=O)=O)ccc1OC	2.4
Cc1nc2c(OCc3ccccc3)cccn2c1CC#N	1.89
CO[C@H]1C(=O)c2c(O)c(CC=C(C)C)c(O)c(CC=C(C)C)c2O[C@@H]1c1ccc(O)cc1	0.31
CN(C)[C@@H]1CCc2[nH]c3ccc(NC(=O)c4ccc(F)cc4)cc3c2C1	1.27
CC(C)C(=O)Nc1cccc(C(F)(F)F)c1	-2.35
CC1=CCC[C@@H]2[C@@](C)(CCc3ccoc3)[C@H](C(=O)O)CC[C@@]12C	1.45
COc1cc(O)c(C(=O)CCc2ccccc2)c(O)c1Cc1ccccc1O	-1.01
COc1cc(C=C(C#N)C(N)=O)cc(CSc2nc3ccccc3s2)c1O	4.48
COc1cccc(-c2cc(=O)c3cc(OC)ccc3o2)c1	3.01
C/C=C/C1=C(Cl)C(=O)[C@@H](O)[C@@]1(O)C(=O)OC	0.319
CC(CCC1(C)C(C)CCC2(CO)C(CO)=CCCC21)CC(=O)O (configuration not stated)	2.53
C=CC(=O)Nc1cccc(Sc2nc(Nc3ccc(N4CCN(C)CC4)cc3)ncc2Cl)c1	0.842
O=C(O)c1cc(=O)c2c(OCC(O)COc3cccc4oc(C(=O)O)cc(=O)c34)cccc2o1	-4.64
CN(C)c1ccc(C2Nc3ccc4ccccc4c3C3=C2C(=O)CC(C)(C)C3)cc1Br (configuration not stated)	3.85
C=C(C(=O)O)[C@@H]1CC[C@@]2(C)CCC[C@@](C)(O)[C@@H]2C1	-2.11
C[C@H](N)C(=O)N[C@@H](C)P(=O)(O)O	0.103
COc1ccc(C(=C2C(=O)Nc3ccccc32)c2ccc(OC)cc2)cc1	1.61
Oc1cc2c(cc1O)C(c1ccccc1)CNCC2 (configuration not stated)	-0.592
CC[C@H](Nc1ncnc2[nH]cnc12)c1nc2cccc(F)c2c(=O)n1-c1ccccc1	6.34
O=S(=O)(c1cccc2c(Cl)cccc12)N1CCCNCC1	1.65

Entries from the list above with a CF3 group, in the order listed:
Structure (SMILES)	cell shape (Z-score)
Cc1c(C(=O)Nc2ccc(N3C[C@@H](C)O[C@@H](C)C3)nc2)cccc1-c1ccc(OC(F)(F)F)cc1	7.49
CC(C)C(=O)Nc1cccc(C(F)(F)F)c1	-2.35

(further entries)

Structure (SMILES)	cell shape (Z-score)
Cc1scc2c1N(C(=O)CN1CCN(C)CC1)c1ccccc1NC2=O	0.841
C=C(C)[C@@H]1CC[C@]2(C(=O)O)CC[C@]3(C)[C@H](CC[C@@H]4[C@@]5(C)CC[C@H](O)C(C)(C)[C@@H]5CC[C@]43C)[C@@H]12	4.66
COC(=O)Nc1nc2cc(C(=O)C3CC3)ccc2[nH]1	-3.64
Nc1c2c(nc3ccccc13)CCCC2	1.05
COc1cc2c(c(O)c1OC)C(=O)CC(c1ccc(O)cc1)O2 (configuration not stated)	0.892
CCCCC[C@H](CC(=O)NO)C(=O)N[C@H](C(=O)N1CCC[C@H]1CO)C(C)C	1.7
Cc1cccc(C2CN(C)CCc3c2cc(O)c(O)c3Cl)c1 (configuration not stated)	-1.2
CC1=CCC[C@@H]2[C@](CCc3ccoc3)(C(=O)O)[C@H](C)CC[C@@]12C	1.21
C[C@@H]1O[C@@H](OC[C@H]2O[C@@H](OCCc3ccccc3)[C@H](O)[C@@H](O)[C@@H]2O)[C@H](O)[C@H](O)[C@H]1O	3.36
CN(C)c1nc(N)c(C(=O)Nc2cccnc2)nc1Cl	3.66
CN(C)CCC(c1ccc(Cl)cc1)c1ccccn1 (configuration not stated)	1.59
Cc1ccc(/C=C2/CNC/C(=C\c3ccc(C)cc3)C2=O)cc1	4.05
C[C@]1(O)CC[C@@H]2C(C(=O)O)=CO[C@@H](O[C@@H]3O[C@H](COC(=O)c4ccc(O)cc4)[C@@H](O)[C@H](O)[C@H]3O)[C@@H]21	0.805
CCCCC/C=C\C/C=C\C/C=C\C/C=C\CCCC(=O)C(F)(F)F	1.99
CC[C@]12CCCN3CCc4c(n(c5ccccc45)[C@](O)(C(=O)OC)C1)[C@@H]32	7.05
COc1ccccc1N1CCN(CCN2C(=O)CC3(CCCC3)CC2=O)CC1	1.31
CC1OC(Oc2cc(O)c3c(=O)c(OC4OC(CO)C(O)C(O)C4OC4OC(C)C(O)C(O)C4O)c(-c4ccc(O)cc4)oc3c2)C(O)C(O)C1O (configuration not stated)	3.29
COc1cc(Nc2ncc3c(n2)-c2ccc(Cl)cc2C(c2c(F)cccc2OC)=NC3)ccc1C(=O)O	6.23
Cc1oncc1C(=O)Nc1ccc(C(F)(F)F)cc1	3.67
COc1ccc(-c2cc(=O)c3c(O)cc(O[C@@H]4O[C@H](CO[C@H]5O[C@H](C)[C@@H](O)[C@H](O)[C@@H]5O)[C@@H](O)[C@H](O)[C@H]4O)cc3o2)cc1O	-1.9
CC(=O)NCCc1c(Cc2ccccc2)[nH]c2ccccc12	-1.38
O=C1Cc2c([nH]c3ccc(Br)cc23)-c2ccccc2N1	2.92
C=C1C(=O)OC2CC(C)C3(/C=C/C(C)=O)OC3CC12 (configuration not stated)	-0.845

As a working copy, some entries already given:
Structure (SMILES)	cell shape (Z-score)
C[C@]1(O)CC[C@@H]2C(C(=O)O)=CO[C@@H](O[C@@H]3O[C@H](COC(=O)c4ccc(O)cc4)[C@@H](O)[C@H](O)[C@H]3O)[C@@H]21	0.805
CCCCC/C=C\C/C=C\C/C=C\C/C=C\CCCC(=O)C(F)(F)F	1.99

Remaining list, next part:

Structure (SMILES)	cell shape (Z-score)
COc1ccc(CN2C(=O)C3C(c4ccccc4CC34CCCC4)n3nnnc32)cc1 (configuration not stated)	0.819
COc1ccccc1-c1cc(=O)c2c(O[C@@H]3O[C@H](CO)[C@@H](O)[C@H](O)[C@H]3O)cc(OC)c(OC)c2o1	-1.41
CCOC(=O)c1ccc(O)cc1	0.429
Cc1c(Cl)cccc1Nc1ccccc1C(=O)O	1.66
COc1cc2ncnc(Nc3cccc(O)c3)c2cc1OC	-0.0551
CC1=CC=C(C=O)C(C)(C)C1OC(=O)/C=C(\C)CO (configuration not stated)	0.267
O=C(Cc1ccc(-c2ccc(OCCN3CCOCC3)cc2)cn1)NCc1ccccc1	9.61
C=C1C(=O)O[C@@H]2[C@H]3O[C@]3(C)CC/C=C(/C)CC[C@@H]12	-9.25
c1ccc2cc(C3=NCCN3)ncc2c1	-4.69
C/C(=C/CO)CC[C@@H]1[C@@](C)(O)CCC2C(C)(C)CCC[C@]21C (some centres not stated)	-0.0677 ± 2
COc1ccc(OC2OC(COC3OCC(O)C(O)C3O)C(O)C(O)C2O)cc1OC (configuration not stated)	1.25
CC(C)c1ccccc1OC(=O)NCCc1ccc2ccccc2c1	3.62
COCc1c(C(C)C)nc(C(C)C)c(/C=C/[C@@H](O)C[C@@H](O)CC(=O)O)c1-c1ccc(F)cc1	10.1 ± 0.39
CC(C)(C)NCC(O)c1ccc(O)c(CO)c1 (configuration not stated)	1.42
COC1CC(O[C@H]2CC[C@]3(C)C4CC[C@@]5(C)C(=O)[C@]4(CC[C@@H]3C2)CC[C@@H]5C2=CC(=O)OC2)OC(C)C1OC1OC(COC2OC(CO)C(O)C(O)C2O)C(O)C(O)C1O (some centres not stated)	0.241
C[C@@H]1O[C@@H](O[C@@H]2[C@@H](O)[C@H](OC(=O)[C@]34CCC(C)(C)CC3C3=CCC5[C@@]6(C)CC[C@H](OC7OC(CO)C(OC8OCC(O)C(O)C8O)C(O)C7O)C(C)(C)C6CC[C@@]5(C)[C@]3(C)CC4O)O[C@H]2CO)[C@H](O)[C@H](O)[C@H]1O[C@H]1OC[C@](O)(CO)[C@H]1O (some centres not stated)	-11.6
O=C(O)CCCCC1SCC2NC(=O)NC21 (configuration not stated)	0.251
COc1ccc(C2OCC3C(c4cc(OC)c5c(c4)OCO5)OCC23)cc1OC (configuration not stated)	-1.14
O=C(O)c1ccc(-c2ccc3cc(C45CC6CC(CC(C6)C4)C5)c(O)cc3c2)cc1	4.68
CN1CCCC(n2nc(Cc3ccc(Cl)cc3)c3ccccc3c2=O)CC1 (configuration not stated)	1.51
Fc1ccc(CNc2ncnc3ccc(F)cc23)cc1	1.17
CS(=O)(=O)c1cccc(CNc2nc(Nc3ccc4c(c3)CCC(=O)N4)ncc2C(F)(F)F)c1	23.1
C#C[C@]1(O)CCC2C3CCC4=CC(=O)CC[C@@H]4C3CC[C@@]21CC (some centres not stated)	0.993

2 compounds drawn at random from those above:
Structure (SMILES)	cell shape (Z-score)
COC1CC(O[C@H]2CC[C@]3(C)C4CC[C@@]5(C)C(=O)[C@]4(CC[C@@H]3C2)CC[C@@H]5C2=CC(=O)OC2)OC(C)C1OC1OC(COC2OC(CO)C(O)C(O)C2O)C(O)C(O)C1O (some centres not stated)	0.241
CC1=CC=C(C=O)C(C)(C)C1OC(=O)/C=C(\C)CO (configuration not stated)	0.267
